Test results from US20170258870A1.
These are yes or no findings as the source states them, for the method shown.

Amino acid sequences for entries named in this document (tags omitted). A change or cut given only in a name is not applied to a line headed by its entry.
UniProt P04062: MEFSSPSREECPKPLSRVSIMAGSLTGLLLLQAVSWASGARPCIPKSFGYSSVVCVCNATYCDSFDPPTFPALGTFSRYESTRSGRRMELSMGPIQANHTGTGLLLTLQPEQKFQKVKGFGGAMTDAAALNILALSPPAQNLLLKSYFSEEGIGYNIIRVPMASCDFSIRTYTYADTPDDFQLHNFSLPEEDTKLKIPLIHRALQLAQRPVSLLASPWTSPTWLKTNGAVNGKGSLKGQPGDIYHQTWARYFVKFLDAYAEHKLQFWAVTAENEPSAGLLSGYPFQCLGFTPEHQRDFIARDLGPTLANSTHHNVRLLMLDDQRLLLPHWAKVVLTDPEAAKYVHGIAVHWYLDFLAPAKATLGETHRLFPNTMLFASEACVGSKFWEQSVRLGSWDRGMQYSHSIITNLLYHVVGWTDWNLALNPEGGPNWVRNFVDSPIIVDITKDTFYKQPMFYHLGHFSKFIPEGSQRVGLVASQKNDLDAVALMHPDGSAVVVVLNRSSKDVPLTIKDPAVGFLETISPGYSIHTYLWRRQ

Target: recombinant GC (Cerezyme, Genzyme Therapeutics) (UniProt P04062)
Experiment: condition: 20 nmol peptide with 2 nmol protein in 250 µl; pulldown with biotinylated peptide on streptavidin beads, neutral pH, coomassie

- binding: no binding
Binder: LREDDEAMDKAYQQKLFVTHTVDE (N-terminal Biotin-Ttds; C-terminus (acid)) [3xD Helix 5 peptide]
